Patent publication US8562986B2, “Engineered anti-alpha V-integrin hybrid antibodies” (Merck Patent GmbH, priority 2007, dated 2013)

Test: Transient expression in PER.C6 (human Fc ELISA)

B1: 17E6-g2h(FN−>AQ): chimeric control: 17E6 variable regions with g2h(FN to AQ) constant region (antibody, V domains shown)
VH: QVQLQQSGAELAEPGASVKMSCKASGYTFSSFWMHWVKQRPGQGLEWIGYINPRSGYTECNEIFRDKATMTADTSSSTAYMQLSGLTSEDSAVYYCASFLGRGAMDYWGQGTSVTVSS
VL: DIQMTQTTSSLSASLGDRVIISCRASQDISNYLSWYQQKPDGTVKLLIFYTSKLHSGVPSRFSGSGSGTDYSLTISNLDQEDIATYFCQQGNTFPYTFGGGTKVEMR
- Transient expression in PER.C6 by HuFc-ELISA, Day 7 (Day 7): 5425 ng/mL
- Fc ELISA (transient transfections, replicate values of one cell): 4.9 µg/mL and 4.0 µg/mL

“And” between values parts separate entries of the source, which are not always exact repeats. Equal entries are not always repeated.
